Results: PMC4849774

By UniProt entry, the sequences of proteins in these tests, tags left out. Where a name states a change or a piece, a line headed by the entry shows the natural chain unless it says otherwise.
UniProt P06537: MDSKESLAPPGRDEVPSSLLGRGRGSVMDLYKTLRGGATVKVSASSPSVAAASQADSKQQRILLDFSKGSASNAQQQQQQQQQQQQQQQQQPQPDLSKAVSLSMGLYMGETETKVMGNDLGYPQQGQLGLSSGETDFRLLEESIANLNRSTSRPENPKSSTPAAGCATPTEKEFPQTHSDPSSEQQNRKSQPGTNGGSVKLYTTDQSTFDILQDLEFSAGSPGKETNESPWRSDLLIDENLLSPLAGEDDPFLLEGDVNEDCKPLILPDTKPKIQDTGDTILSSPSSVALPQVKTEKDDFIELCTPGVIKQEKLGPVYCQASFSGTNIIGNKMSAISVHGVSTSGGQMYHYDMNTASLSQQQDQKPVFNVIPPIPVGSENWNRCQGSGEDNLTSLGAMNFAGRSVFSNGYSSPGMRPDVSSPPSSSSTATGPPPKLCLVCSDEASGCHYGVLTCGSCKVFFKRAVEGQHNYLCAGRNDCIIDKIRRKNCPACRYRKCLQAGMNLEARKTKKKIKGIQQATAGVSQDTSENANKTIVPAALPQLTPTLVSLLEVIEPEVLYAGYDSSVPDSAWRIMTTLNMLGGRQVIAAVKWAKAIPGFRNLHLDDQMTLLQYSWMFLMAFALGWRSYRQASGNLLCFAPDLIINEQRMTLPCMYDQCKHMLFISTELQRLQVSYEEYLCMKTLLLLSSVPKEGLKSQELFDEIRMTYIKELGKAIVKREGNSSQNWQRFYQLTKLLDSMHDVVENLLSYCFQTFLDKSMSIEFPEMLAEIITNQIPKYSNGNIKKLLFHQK
UniProt Q9DC28: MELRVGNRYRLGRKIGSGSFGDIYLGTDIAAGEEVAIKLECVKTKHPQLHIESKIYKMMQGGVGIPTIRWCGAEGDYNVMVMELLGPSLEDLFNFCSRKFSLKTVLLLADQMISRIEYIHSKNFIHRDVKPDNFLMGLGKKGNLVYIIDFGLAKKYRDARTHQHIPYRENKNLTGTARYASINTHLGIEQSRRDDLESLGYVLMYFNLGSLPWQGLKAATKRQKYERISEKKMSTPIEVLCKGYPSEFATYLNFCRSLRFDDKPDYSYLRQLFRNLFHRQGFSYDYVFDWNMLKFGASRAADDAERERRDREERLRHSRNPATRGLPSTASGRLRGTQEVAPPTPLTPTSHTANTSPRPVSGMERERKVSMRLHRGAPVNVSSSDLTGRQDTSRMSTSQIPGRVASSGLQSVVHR
UniProt Q921F2: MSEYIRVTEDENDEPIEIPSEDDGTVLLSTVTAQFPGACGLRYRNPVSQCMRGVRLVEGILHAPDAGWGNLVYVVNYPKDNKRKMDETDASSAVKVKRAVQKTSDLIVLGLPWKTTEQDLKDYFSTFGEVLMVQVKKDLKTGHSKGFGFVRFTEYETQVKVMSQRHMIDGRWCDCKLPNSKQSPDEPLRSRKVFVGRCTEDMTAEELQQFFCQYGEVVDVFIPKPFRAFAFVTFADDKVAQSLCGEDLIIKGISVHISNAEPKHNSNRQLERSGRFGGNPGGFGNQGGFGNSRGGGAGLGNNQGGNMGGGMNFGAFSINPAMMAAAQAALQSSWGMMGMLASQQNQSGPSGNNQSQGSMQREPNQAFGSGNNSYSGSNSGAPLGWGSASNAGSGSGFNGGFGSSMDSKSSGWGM

How the values were obtained:
Experiment in all cases: affinity purification with mass spectrometry; FLAG-His-Myc-CRY1 or -CRY2 expressed in NIH3T3 cells (10 uM MG132, 6 hours), lysed with IP Buffer, precipitated with anti-FLAG M2 agarose, eluted with FLAG peptide, tryptic digestion, LC-MS/MS shotgun proteomics; FH-LacZ as control
[1] = target: T1, FLAG-His-Myc-CRY1 (mouse) (UniProt P97784)
T1 sequence: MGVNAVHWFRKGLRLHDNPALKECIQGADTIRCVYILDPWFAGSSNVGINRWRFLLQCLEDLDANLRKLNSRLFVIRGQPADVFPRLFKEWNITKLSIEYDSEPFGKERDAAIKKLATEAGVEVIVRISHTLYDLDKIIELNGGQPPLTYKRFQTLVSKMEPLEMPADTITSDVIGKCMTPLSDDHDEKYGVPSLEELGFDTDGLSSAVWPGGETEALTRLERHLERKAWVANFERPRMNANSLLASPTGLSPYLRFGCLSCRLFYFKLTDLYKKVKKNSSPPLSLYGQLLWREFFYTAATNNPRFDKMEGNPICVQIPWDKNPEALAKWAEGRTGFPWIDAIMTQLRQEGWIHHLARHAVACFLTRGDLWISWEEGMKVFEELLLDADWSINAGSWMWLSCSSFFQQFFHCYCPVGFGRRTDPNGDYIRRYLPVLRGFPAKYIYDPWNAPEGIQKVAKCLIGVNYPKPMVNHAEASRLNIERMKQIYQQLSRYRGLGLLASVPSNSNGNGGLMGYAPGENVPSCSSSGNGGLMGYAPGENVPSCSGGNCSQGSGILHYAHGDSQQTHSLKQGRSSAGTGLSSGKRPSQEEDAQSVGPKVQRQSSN

[2] = target: T2, FLAG-His-Myc-CRY2 (mouse) (UniProt Q9R194)
T2 sequence: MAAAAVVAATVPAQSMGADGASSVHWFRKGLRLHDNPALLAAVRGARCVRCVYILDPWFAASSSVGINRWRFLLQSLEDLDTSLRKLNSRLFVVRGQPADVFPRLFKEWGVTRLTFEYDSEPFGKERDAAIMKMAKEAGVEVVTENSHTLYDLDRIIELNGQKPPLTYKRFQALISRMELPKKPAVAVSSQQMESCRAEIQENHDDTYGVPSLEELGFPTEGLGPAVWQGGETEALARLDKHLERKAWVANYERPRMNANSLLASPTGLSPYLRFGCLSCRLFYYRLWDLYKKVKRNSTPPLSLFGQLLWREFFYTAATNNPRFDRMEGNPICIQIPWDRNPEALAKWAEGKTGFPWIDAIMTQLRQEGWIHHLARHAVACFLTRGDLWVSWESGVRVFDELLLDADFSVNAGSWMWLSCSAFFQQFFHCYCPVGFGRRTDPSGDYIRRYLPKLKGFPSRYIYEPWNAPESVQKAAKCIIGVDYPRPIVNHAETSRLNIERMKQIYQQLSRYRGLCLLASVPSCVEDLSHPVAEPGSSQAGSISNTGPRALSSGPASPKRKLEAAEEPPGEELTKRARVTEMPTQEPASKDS

[3] = target: T1, FLAG-His-Myc-CRY1 (mouse); remark: listed apart in the source
[4] = target: T2, FLAG-His-Myc-CRY2 (mouse); remark: listed apart in the source

binding [1]: binds | binding [2]: binds
Molecule: glucocorticoid receptor (from UniProt P06537 1-792)

binding [1]: binds | binding [2]: binds
Molecule: CKIδ (from UniProt Q9DC28 1-415)

binding [1]: binds | binding [2]: binds
Molecule: TAR DNA binding protein 43 (from UniProt Q921F2 1-414)

binding [3]: binds | binding [4]: binds
B1: FBXL3 (protein, UniProt Q8C4V4 1-428)
chain: MKRGGRDSDQDSAEEGTAEKPKRPRTTQERSQPCDWGNLLQDIVLHVFKYLPLLDRAHASQVCRNWNQVFHMPDLWRCFEFELNQPATSYLKATHPELIKQIIKRHSNHLQYVSFKVDSSKESAEAACDILSQLVNCSLKTLGLISTARPSFMDLPKSHFISALTVVFVNSKSLSSLKIDDTPVDDPSLKVLVANNSDTLKLLKMSSCPHVSPAGILCVADQCHGLRELALNYHLLSDELLLALSSEKHVRLEHLRIDVVSENPGQTHFHTIQKSSWDAFIKHSPKVNLVMYFFLYEEEFDPFFRYEIPATHLYFGRSVSKDVLGRVGMTCPRLVELVVCANGLRPLDEELIRIAERCKNLSAIGLGECEVSCSAFVEFVKMCGGRLSQLSIMEEVLIPDQKYSLEQIHWEVSKHLGRVWFPDMMPTW

Read-outs that look alike come from different tables or passages of the source. No constants are given. Whether binding was seen depends on the method and setting. In cells and extracts the contact can be indirect. Here binding means that the protein was enriched with, or labelled near, the bait; the list need not be complete. Sequences can lack the tags named with a protein. Each block holds one molecule with its values, some of them ahead of it.
